Experimental data taken from paper PMC7761126.
These are yes or no findings as the source states them, for the method shown. In cells and extracts the contact can be indirect. These calls come from enrichment with a bait or labelling near it, and not all partners need be listed.

B1: leucine-rich repeat in flightless 1 interaction protein 1 (protein, UniProt Q66HF9 1-738)
chain: MTSPEGAQNKEIDCLSPEAQRLAEARLAAKRAARAEAREIRMKELERQQKEVEERPDKDFAEKGSRNMPSLSAATLASLGGTSSRRGSGDTSISMDTEASIREIKDSLAEVEEKYKKAMVSNAQLDNEKTNFMYQVDTLKDMLLELEEQLAESQRQYEEKNKEFEREKHAHSILQFQFAEVKEALRQREEMLEKHGIILNSEIATNGETSDTVNDVGYQAPTKITKEELNALKAAGEGTLGKAKEVEVKKEIVEKVGQRETLQDSEQEQPKLNTGKDCVDRGVLHPGEKAENQRPVEDSALSPGPLAGAKCEQEVQSQDQENTSILKSPEQIESHEVTNKSDSRDSNSPEPSSCRGGLDSEVSGPTALGIKNQSENSMDSQGKENQEDLGKGSFEPRPDHVLGQTPEIDKVSCTDSRGTGGNHLEDVVQAGDTIVEDQVGTMASAEQSKSMENHIGRSLNDGLGQSSERELAHEAAELEEALTQSSQAGGENTVTEAEDAAVRDEKPLQADVQATPAAPTVQSGHQDTTGPGSTDTKHTSPHAKERNKAKSEQQAEALDSPQKKTKNKKKKNKKKKAAAPMETCKDANEESSCQDPDVGDGEEEERVQATDKKWAAETPELKEDPQSRPSGKQNDAEEDSGPAEGPTDVLDQNSLQCADGDISPVGRKGPQRDASQIGGEEGLVPSQHPGQADEKGIEGHSVDNSDLSGELGGFNSESGEQAREEVGNSKSKEDCTMS
B2: PRDX2 (enzyme, UniProt P35704 1-198)
chain: MASGNAHIGKPAPDFTGTAVVDGAFKEIKLSDYRGKYVVLFFYPLDFTFVCPTEIIAFSDHAEDFRKLGCEVLGVSVDSQFTHLAWINTPRKEGGLGPLNIPLLADVTKSLSQNYGVLKNDEGIAYRGLFIIDAKGVLRQITVNDLPVGRSVDEALRLVQAFQYTDEHGEVCPAGWKPGSDTIKPNVDDSKEYFSKHN
B3: PRDX3 (enzyme, UniProt Q9Z0V6 63-257)
chain: TPAVTQHAPHFKGTAVVNGEFKELSLDDFKGKYLVLFFYPLDFTFVCPTEIVAFSDKANEFHDVNCEVVAVSVDSHFSHLAWINTPRKNGGLGHMNITLLSDLTKQISRDYGVLLESAGIALRGLFIIDPNGVIKHLSVNDLPVGRSVEEPLRLVKAFQFVETHGEVCPANWTPESPTIKPSPTASKEYFEKVHQ
B4: caytaxin (protein, UniProt Q1M168 1-372)
chain: MGTTEATLRMENVDVRDEWQDEDLPRPLPEDTGEDHLGGTVEDSSSPPSTLNLSGAHRKRKTLVAPEINISLDQSEGSLLSDDFLDTPDDLDINVDDIETPDETDSLEFLGNGNELEWEDDTPVATAKNMPGDSADLFGDGSGEDGSAANGRLWRTVIIGEQEHRIDLHMIRPYMKVVTHGGYYGEGLNAIIVFAACFLPDSSSPDYHYIMENLFLYVISSLELLVAEDYMIVYLNGATPRRRMPGIGWLKKCYHMIDRRLRKNLKSLIIVHPSWFIRTVLAISRPFISVKFISKIQYVHSLEELEQLIPMEHVQLPACVLQYEEQRLRAKRESARPPQPEFLLPRSEEKPETVEEEDRAAEVTEDQETSMS
B5: LRRFIP2 (protein, UniProt Q4V7E8 1-437)
chain: MGTPGSGRKRTPVKDRFSAEDEALSNIAREAEARLAAKRAARAEARDIRMRELERQQRESSSKDITGTHWSRASTPKRRDMMYDSIKDRSSRVSSLLDEKSDKQYAENYTRPSSRNSASATTPLSGNSSRRGSGDTSSLIDPDTSLSELRESLSEVEEKYKKAMVSNAQLDNEKNNLIYQVDTLKDVIEEQEEQMAEFYRENEEKSKELERQKHMCSVLQHKMDELKEGLRQRDELIEKHGLVIIPESTPNGDVNHEPVVGAITAVSQEAAQVLESAGEGPLDVRLRKLAEEKDELLSQIRKLKLQLEEERQKCSRNDGMSGDLAGLQNGSDLQFIEMQRDANRQISEYKFKLSKAEQDIATLEQSISRLEGQVLRYKTAAENAEKIEDELKAEKRKLQRELRTAQDKIEEMEMTNSHLAKRLEKMKANRTALLAQQ
B6: flightless I homologue (protein, UniProt Q5RKI5 1-1270)
chain: MEATGVLPFVRGVDLSGNDFKGGYFPENVKAMTSLRWLKLNRTGLCYLPEELAALQKLEHLSVSHNNLTTLHGELSSLPSLRAIVARANSLKNSGVPDDIFKLDDLSVLDLSHNQLTECPRELENAKNMLVLNLSHNSIDSIPNQLFINLTDLLYLDLSENRLESLPPQMRRLVHLQTLVLNGNPLLHAQLRQLPAMMALQTLHLRNTQRTQSNLPTSLEGLSNLSDVDLSCNDLTRVPECLYTLPNLHRLNLSSNQIAELSLCIDQWVHLETLNLSRNQLTSLPSAICKLTKLKKLYLNSNKLDFDGLPSGIGKLTSLEEFMAANNNLELIPESLCRCPKLRKLVLNKNRLVTLPEAIHFLTEIEVLDVRENPSLVMPPKPADHTAEWYNIDFSLQNQLRLAGASPATVAAAAAVGSGSKDPLARKMRLRRRKDSAQDVQAKQVLKGMSDVAQEKNKNQEESTDARAPGGKVRRWDQGLEKPRLDYSEFFTEDVGQLPGLTIWQIENFVPVLVEEAFHGKFYEADCYIVLKTFLDDSGSLNWEIYYWIGGEATLDKKACSAIHAVNLRNYLGAECRTAREEMGDESEGFLQVFDNDISYIEGGTASGFYTVEDTHYVTRMYRVYGKKNIKLEPVPLKGTSLDPRFVFLLDQGLDIYVWRGAQATLSNTTKARLFAEKMNKNERKGKAEITLLVQGQEPPEFWDVLGGEPSEIKKHVPDDFWPPQPKLYKVGLGLGYLELPQINYKLSVEHKKRPKVELMPGMRLLQSLLDTRCVYILDCWSDVFIWLGRKSPRLVRAAALKLGQELCGMLHRPRHTVVSRSLEGTEAQVFKAKFKNWDDVLTVDYTRNAEAVLQGPGISGKVKRDTEKKDQMKADLTALFLPRQPPMPLAEAEQLMEEWNEDLDGMEGFVLEGRKFTRLAEEEFGHFYTQDCYVFLCRYWVPVEYEEEEKPEDKEGKASAEGREEEEAAAETEEKQPEEDFQCIVYFWQGREASNMGWLTFTFSLQKKFESLFPGKLEVVRMTQQQENPKFLSHFKRKFIIHRGKRKVTQTLQPTLYQIRTNGSALCTRCIQINTDSSLLNSEFCFILKVPFESEDNQGIVYAWVGRASDPDEAKLAEDILNTMFDPSYSKQVINEGEEPENFFWVGIGAQKPYDDDAEYMKHTRLFRCSNEKGYFAVTEKCSDFCQDDLADDDIMLLDNGQEVYMWVGTQTSQVEIKLSLKACQVYIQHTRSKEHERPRRLRLVRKGNEQRAFTRCFHAWSTFRQAPA
B7: GAIP interacting protein at C terminus (protein, UniProt Q9Z254 1-333)
chain: MPLGLGRRKKAPPLVENEEAEPSRSGLGVGEPGPLGGSGAGESQMGLPPPPASLRPRLVFHTQLAHGSPTGRIEGFTNVKELYGKIAEAFRLPAAEVMFCTLNTHKVDMDKLLGGQIGLEDFIFAHVKGQRKEVEVFKSEDALGLTITDNGAGYAFIKRIKEGSVIDHIQLISVGDMIEAINGQSLLGCRHYEVARLLKELPRGRTFTLKLTEPRKAFDMISQRSSGGHPGSGPQLGTGRGTLRLRSRGPATVEDLPSAFEEKAIEKVDDLLESYMGIRDTELAATMVELGKDKRNPDELAEALDERLGDFAFPDEFVFDVWGAIGDAKVGRY
B8: peroxiredoxin (PRDX) 1 (enzyme, UniProt Q63716 1-199)
chain: MSSGNAKIGHPAPSFKATAVMPDGQFKDISLSDYKGKYVVFFFYPLDFTFVCPTEIIAFSDRAEEFKKLNCQVIGASVDSHFCHLAWINTPKKQGGLGPMNIPLVSDPKRTIAQDYGVLKADEGISFRGLFIIDDKGILRQITINDLPVGRSVDEILRLVQAFQFTDKHGEVCPAGWKPGSDTIKPDVNKSKEYFSKQK

Molecular target: Death-associated protein kinase 1 (rat (endogenous in primary cortical neurons and brain))
Assay: affinity purification with mass spectrometry; rabbit anti-DAPK1 antibody covalently attached to Dynabeads, incubated with 50 mg protein extracts of rat cortical neurons (control or OGD, 30 min after OGD); eluted in TCA, trypsin digest, LC-MS/MS (LTQ-Orbitrap XL); non-specific antibody as negative control

Binder | binding
B1 | binds
B2 | binds
B3 | binds
B4 | binds
B5 | binds
B6 | binds
B7 | binds
B8 | binds
